Values from PubChem BioAssay AID1259264 (Sanger Institute, 2017)
Test: 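Kinase-wide knock-down to find genes that strengthen targeted drug effects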 (primary screen). Cells: CL40 human colorectal cancer cells. Knock-down reagent: siRNA pool against human genes. Challenge: DMSO, or an anchor drug: BYL719 at 1 µM, cetuximab at 5 µg/ml, or trametinib at 10 nM. Measured: 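Replicate-mean viability versus a non-targeting pool, robust z-score from control wells, and mean synergy with BYL719 1 µM, cetuximab 5 µg/ml or trametinib 10 nM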. Reading the numbers: robust z-score, siRNA alone and viability, siRNA alone: higher = more viable cells. Units: viability, siRNA alone in fraction of control. Call rule: 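Essential call: siRNA with no drug reaches a robust z under -3 (low cell count); drug synergy scores do not affect it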. Calls: active = essential (lowers viability alone); inactive = not essential.
The whole screen tested 794 reagents; below is a random part of them. 15 of all reagents (1.9%) were called active. 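Calls rest on knock-down alone at z-score below -3; synergy scores with the three drugs do not decide them.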 Reagents against one gene are numbered here. No viability above 1 is reported: the scale is capped. Further read-outs or replicates are left out here. Not given: the amount of reagent, the time to read-out.

CDK10 (GeneID 8558): robust z-score, siRNA alone = -0.442; viability, siRNA alone = 0.93; outcome = inactive
CSNK1G2 (GeneID 1455): robust z-score, siRNA alone = 0.539; viability, siRNA alone = 1; outcome = inactive
MELK (GeneID 9833): robust z-score, siRNA alone = 0.539; viability, siRNA alone = 1; outcome = inactive
NRK (GeneID 203447): robust z-score, siRNA alone = 0.539; viability, siRNA alone = 1; outcome = inactive
FCSK (GeneID 197258): robust z-score, siRNA alone = -0.482; viability, siRNA alone = 0.927; outcome = inactive
DYRK2 (GeneID 8445): robust z-score, siRNA alone = -0.905; viability, siRNA alone = 0.897; outcome = inactive
PIK3R4 (GeneID 30849): robust z-score, siRNA alone = 0.539; viability, siRNA alone = 1; outcome = inactive
DCLK2 (GeneID 166614): robust z-score, siRNA alone = -0.0916; viability, siRNA alone = 0.955; outcome = inactive
PKN2 (GeneID 5586): robust z-score, siRNA alone = -0.579; viability, siRNA alone = 0.92; outcome = inactive
EIF2AK2 (GeneID 5610): robust z-score, siRNA alone = 0.539; viability, siRNA alone = 1; outcome = inactive
ILK (GeneID 3611) #1: robust z-score, siRNA alone = 0.376; viability, siRNA alone = 0.988; outcome = inactive
ILK (GeneID 3611) #2: robust z-score, siRNA alone = 0.539; viability, siRNA alone = 1; outcome = inactive
MAP4K5 (GeneID 11183): robust z-score, siRNA alone = 0.305; viability, siRNA alone = 0.983; outcome = inactive
CSNK1G3 (GeneID 1456): robust z-score, siRNA alone = 0.539; viability, siRNA alone = 1; outcome = inactive
RFK (GeneID 55312): robust z-score, siRNA alone = 0.344; viability, siRNA alone = 0.986; outcome = inactive
CALM2 (GeneID 805): robust z-score, siRNA alone = 0.539; viability, siRNA alone = 1; outcome = inactive
TNIK (GeneID 23043): robust z-score, siRNA alone = 0.499; viability, siRNA alone = 0.997; outcome = inactive
STK32B (GeneID 55351): robust z-score, siRNA alone = -3.69; viability, siRNA alone = 0.697; outcome = active
EPHB1 (GeneID 2047): robust z-score, siRNA alone = -0.165; viability, siRNA alone = 0.95; outcome = inactive

Targets listed so far whose target name starts with M or m:
MELK (GeneID 9833): robust z-score, siRNA alone = 0.539; viability, siRNA alone = 1; outcome = inactive
MAP4K5 (GeneID 11183): robust z-score, siRNA alone = 0.305; viability, siRNA alone = 0.983; outcome = inactive
